The campaign covered roughly 300,000 compounds. About 3,700 (1.2%) were called active. This list was built around the results that the source calls inconclusive (neither active nor inactive); the mix of calls is not that of the screen. Calls come from the whole dose curve; tested in HEK293 cells. Where the call is inconclusive, the potency comes from a doubtful curve fit.
Assay: qHTS for Inhibitors of binding or entry into cells for Lassa Virus; note: nearly all actives have a fitted effect of over 50% in size
Conditions: Lassa virus pseudotype entry inhibition, cell reporter; activity change, negative = inhibition: at 37.9 µM (top of the series) unless noted
% is set by controls: 0 for no effect and ±100 for the full control effect; potency is the fitted concentration of half-maximal effect.

SMILES | Potency | activity change, negative = inhibition
COc1ccccc1C(=O)Nc1ccc(N2CCCCC2)cc1 | inconclusive: 12.6 µM [inhibitor, partial curve, poor fit] | –
Cc1ccc(-c2ccc(=O)n(CCC(=O)NCCc3ccccc3)n2)cc1 | – | inactive: 2.9% [at 46.1 µM]
O=C(NCCc1ccc(F)cc1)Nc1ccc([N+](=O)[O-])cc1 | – | inactive: 27.7% [at 46.1 µM]
CCOc1ccccc1NC(=O)c1ccc(S(=O)(=O)N2CCCCC2)cc1 | inconclusive: 14.1 µM [inhibitor, single point] | –
S=c1[nH]nc(C2CCCCC2)n1/N=C/c1ccc(Cl)cc1 | inconclusive: 0.355 µM [inhibitor, partial curve, poor fit] | –
c1ccc2c(c1)-c1nc3ccccc3cc1C2N1CCOCC1 (stereo not drawn) | – | inactive: -13.8%
Cc1ccc(NCc2ccc(O)c3ncccc23)cc1C | inconclusive: 15.8 µM [inhibitor, partial curve, poor fit] | –
Cc1cc2oc(=O)cc(Cn3ncc(Cl)c(Cl)c3=O)c2cc1Cl | inconclusive: 12.6 µM [inhibitor, partial curve, poor fit] | –
CC(C)CN[S+](=O)([O-])c1ccc(Br)cc1N1CCC[C@H]1CO | inconclusive: 0.141 µM [activator, full curve, poor fit] | –
Cc1ccc(S(=O)(=O)NCC(=O)OCC(=O)Nc2cccc(S(=O)(=O)NC3=NCCCCC3)c2)cc1C | inconclusive: 12.6 µM [inhibitor, single point] | –
Cc1cc2c(cc1C)CSC(c1ccccc1OC(=O)C(C)(C)C)SC2 | inconclusive: 35.5 µM [inhibitor, single point] | –
CCCCOc1ccc(-c2csc(N)n2)cc1[N+](=O)[O-] | inconclusive: 23.1 µM [activator, single point] | –
COc1ccc(NC(=O)CSc2nnc(CNC(=O)COc3ccc(Cl)cc3)o2)c(OC)c1 | inconclusive: 1.41 µM [inhibitor, partial curve, poor fit] | –
CCn1c2c(c(=O)n3ncc(C(=O)N4CCN(c5ccc(Cl)cc5)CC4)c13)CN(Cc1ccc(OC)cc1)CC2 | inconclusive: 10 µM [inhibitor, single point] | –
CCc1nn2cc(C(=O)c3cc(C)ccc3O)cnc2c1-c1ccc(F)cc1 | – | inactive: 8.97%
CCC(Oc1ccc(F)cc1)C(=O)Nc1c(C(=O)c2ccc(C)cc2)oc2ccccc12 (stereo not drawn) | – | inactive: 3.21% [at 46.1 µM]
COc1ccc(Nc2cc3n(c(=O)n2)CCc2cc(OC)c(OC)cc2-3)cc1 | inconclusive: 0.112 µM [inhibitor, full curve, poor fit] | –
Cc1ccc(C(=O)CSc2nnc(CNc3ccc(C)cc3C)n2Cc2ccco2)cc1 | active: 25.9 µM | –
CC12C(=O)N(c3ccccc3)C(=O)C1C(c1ccccc1)N1CCCN12 (stereo not drawn) | inconclusive: 1.26 µM [inhibitor, single point] | –
Cc1ccc(C(C(=O)NC2CCCCC2)N(Cc2ccco2)C(=O)Cc2c[nH]c3ccccc23)o1 (stereo not drawn) | inconclusive: 16.4 µM [inhibitor, single point] | –
O=C1C=C(Nc2cccc3cccnc23)c2ccccc2C1=O | – | inactive: -0.149% [at 46.1 µM]
COc1cccc(N2CCN(C(=O)C3CCN(S(=O)(=O)c4c(C)noc4/C=C/c4ccccc4F)CC3)CC2)c1 | – | inactive: -2.56% [at 46.1 µM]
CCCS(=O)(=O)c1c(S(=O)(=O)CCC)c2cc(C(C)(C)C)ccn2c1C(=O)c1ccccc1 | inconclusive: 17.8 µM [inhibitor, partial curve, poor fit] | –

SMILES | Potency | activity change, negative = inhibition
CCS(=O)(=O)N1CCCC(C(=O)NCCCN2CCCC2=O)C1 (stereo not drawn) | – | inactive: -8.31%
Cc1ccc(NC(=O)c2cc3ccccc3o2)nc1 | active: 5.01 µM | –
COc1ccc(N(Cc2cccs2)C(=O)c2ccc(OC)c(Cl)c2)cc1 | – | inactive: -22.7% [at 46.1 µM]
Cc1cccc(N2CCN(C(=O)C3CCN(S(=O)(=O)c4c(C)noc4C)CC3)CC2C)c1 (stereo not drawn) | inconclusive: 6.31 µM [inhibitor, partial curve, poor fit] | –
C/C(=N\NC(=O)c1nonc1N)c1cccs1 | – | inactive: 10.5%
Cc1cc(C)c2cc(CN(CCO)C(=O)Nc3ccc(Cl)cc3)c(=O)[nH]c2c1 | inconclusive: 3.55 µM [inhibitor, partial curve, poor fit] | –
COc1ccc(N(CC(=O)NCc2ccccc2C)S(=O)(=O)c2ccccc2[N+](=O)[O-])c(OC)c1 | inconclusive: 7.08 µM [inhibitor, full curve, poor fit] | –
Cc1ccc(C)c2nc3sc(C(=O)O)cc3cc12 | – | inactive: 4.12% [at 46.1 µM]
CCN(CC(=O)NCc1ccc(Cl)cc1)C(=O)CN1C(=O)NC(C)(c2ccccc2)C1=O (stereo not drawn) | inconclusive: 0.631 µM [activator, single point] | –
CSc1ccccc1OCc1cc(C(=O)N(C)CC2COCCO2)no1 (stereo not drawn) | inconclusive: 3.55 µM [activator, single point] | –
NC(=S)NN=Cc1nccc2ccccc12 | inconclusive: 1.41 µM [inhibitor, full curve, poor fit] | –
COc1ccccc1/C=N/NC(=O)c1ccc(NC(=O)c2ccccc2Br)cc1 | – | inactive: 3.31%
Cc1ccc2cc(CN(Cc3ccccc3)Cc3nnnn3C3CCCC3)c(=O)[nH]c2c1 | – | inactive: -15.6%
COc1cc(C2c3cc4c(cc3OC(NCCc3ccccc3)C2C)OCO4)cc(OC)c1OC (stereo not drawn) | inconclusive: 0.158 µM [inhibitor, full curve, poor fit] | –
O=C(CSc1nnc(Nc2ccccc2)s1)Nc1ccc(S(=O)(=O)N2CCOCC2)cc1 | – | inactive: -11.2%
COc1ccc(NC(=O)C(NS(=O)(=O)c2ccc3c(c2)CCCN3C(C)=O)C(C)C)c(OC)c1 (stereo not drawn) | inconclusive: 6.51 µM [inhibitor, single point] | –
CC(=O)N1CCN(c2ccc(NC(=O)c3ccc4ccccc4c3)cc2)CC1 | inconclusive: 2.82 µM [inhibitor, single point] | –
O=C(Cn1ncc2c3ccccc3n(Cc3cccc(Cl)c3)c2c1=O)Nc1ccc(F)cc1F | inconclusive: 1.78 µM [inhibitor, partial curve, poor fit] | –
N#C/C(=C\c1cccs1)C(=O)Nc1ccccn1 | inconclusive: 11.2 µM [activator, partial curve, poor fit] | –
c1ccc(CN=C2NN=C(c3cc4ccccc4o3)CS2)cc1 | inconclusive: 11.6 µM [inhibitor, partial curve, poor fit] | –
Cc1cc(C)n2nc(SCC(=O)N(Cc3ccccc3)C3CCS(=O)(=O)C3)nc2n1 (stereo not drawn) | – | inactive: -1.16%
CC(C)(C)c1ccc(Cn2nnc3c(=O)[nH]c(C4CCN(C(=O)Cc5cccs5)CC4)nc32)cc1 | inconclusive: 13 µM [inhibitor, partial curve, poor fit] | –
O=C1S/C(=C\C=C\c2ccco2)C(=O)N1c1ccccc1 | inconclusive: 2.82 µM [inhibitor, partial curve, poor fit] | –

SMILES | Potency | activity change, negative = inhibition
CCSc1nnc(NC(=O)CSC2=NN3CCCC(=O)N=C3S2)s1 | inconclusive: 14.1 µM [activator, partial curve, poor fit] | –
Cc1nnc(SCC(=O)Nc2nsc(-c3ccccc3)n2)s1 | inconclusive: 23.1 µM [activator, single point] | –
COc1ccc(Nc2nnc(-c3ccc(C)cc3)c3ccccc23)cc1C(=O)N1CCCCC1 | inconclusive: 12.6 µM [inhibitor, single point] | –
CC1CCc2c(sc3nc(CSc4n[nH]c(N)n4)[nH]c(=O)c23)C1 (stereo not drawn) | inconclusive: 14.6 µM [activator, partial curve, poor fit] | –
COc1ccc(N2CCN(C(=O)C3CCCN(S(=O)(=O)c4c(C)noc4C)C3)CC2)cc1 (stereo not drawn) | inconclusive: 10 µM [inhibitor, partial curve, poor fit] | –
O=C(NNC(=O)c1ccco1)c1ccccc1 | – | inactive: 23.9%
O=C(NCCC1=CCCCC1)c1ccc(Cl)c(S(=O)(=O)Nc2ccccc2)c1 | inconclusive: 32.6 µM [inhibitor, single point] | –
Cn1c(-c2ccc3c(c2)OCO3)cnc1N | – | inactive: 16.3%
CN(CC(=O)Nc1ccncc1)S(=O)(=O)c1ccc(Br)cc1 | – | inactive: -15%
Cc1occc1C(=O)Nc1cnn(CCCC(=O)O)c1 | – | inactive: 17.7% [at 46.1 µM]
Cc1ccc(NC(=O)NNC(=O)C2CC(c3cccs3)=NO2)cc1 (stereo not drawn) | – | inactive: 1.71% [at 46.1 µM]
CCc1ccc(NC(=O)/C(C#N)=C\c2ccc(OC)c(C(=O)O)c2)cc1 | – | inactive: -12.2%
O=C1C=C(c2c(O)ccc3ccccc23)c2ccccc2C1=O | active: 6.31 µM | –
Cc1cccc(NC2=NC(C)(C)N=C(N)N2)c1 | inconclusive: 5.62 µM [inhibitor, full curve, poor fit] | –
Cc1cc(NC(=O)Nc2ccc(F)c(Cl)c2)no1 | – | inactive: -0.974%
CCN(CC)C(=O)c1sc2c(c1C)c(=O)n(CCc1ccccc1)c(=O)n2Cc1cc(C)ccc1C | inconclusive: 2.82 µM [inhibitor, single point] | –
COC(=O)c1c(C)[nH]c(C(C)=O)c1C | – | inactive: 21.4%
CCOC(=O)C1CCN(C(=O)CNC(=O)c2nn(-c3ccc(OC)c(Cl)c3)c(=O)c3ccccc23)CC1 | inconclusive: 12.6 µM [inhibitor, single point] | –
CC1CCCC(NC(=O)C2c3ccccc3C(=O)N2Cc2cccs2)C1C (stereo not drawn) | inconclusive: 10 µM [inhibitor, partial curve, poor fit] | –
O=C(COc1ccc(/C=N/NC(=O)c2ccncc2)cc1)Nc1cccc([N+](=O)[O-])c1 | inconclusive: 35.5 µM [inhibitor, single point] | –
Cc1ccc(C(=O)OCC(=O)N2CC(C)CC(C)C2)cc1S(=O)(=O)N1CCOCC1 (stereo not drawn) | inconclusive: 1.26 µM [inhibitor, single point] | –
CC(=O)c1cn(CC(=O)Nc2ccc(C)c(C)c2)c2ccccc12 | inconclusive: 20 µM [activator, single point] | –

Look-ups from the entries so far.
Value of Cc1ccc(C(=O)CSc2nnc(CNc3ccc(C)cc3C)n2Cc2ccco2)cc1 under Potency: active: 25.9 µM
Value of COc1cc(C2c3cc4c(cc3OC(NCCc3ccccc3)C2C)OCO4)cc(OC)c1OC (stereo not drawn) under Potency: inconclusive: 0.158 µM [inhibitor, full curve, poor fit]
Value of C/C(=N\NC(=O)c1nonc1N)c1cccs1 under activity change, negative = inhibition: inactive: 10.5%
Value of O=C1S/C(=C\C=C\c2ccco2)C(=O)N1c1ccccc1 under Potency: inconclusive: 2.82 µM [inhibitor, partial curve, poor fit]
